In all, about 33,000 sequences were measured (“E-score (-0.5 to 0.5)”: median about -0.016, highest 2% from about 0.3 on). The list shows a part of the results.
biological target: T1, Yer184c (UniProt P39961); test: PBM E-score (8-mer binding enrichment) (E-score (-0.5 to 0.5)); higher = stronger / more preferred TF binding; settings: protein concentration: 100 nM; construct: GST-full length
T1 sequence: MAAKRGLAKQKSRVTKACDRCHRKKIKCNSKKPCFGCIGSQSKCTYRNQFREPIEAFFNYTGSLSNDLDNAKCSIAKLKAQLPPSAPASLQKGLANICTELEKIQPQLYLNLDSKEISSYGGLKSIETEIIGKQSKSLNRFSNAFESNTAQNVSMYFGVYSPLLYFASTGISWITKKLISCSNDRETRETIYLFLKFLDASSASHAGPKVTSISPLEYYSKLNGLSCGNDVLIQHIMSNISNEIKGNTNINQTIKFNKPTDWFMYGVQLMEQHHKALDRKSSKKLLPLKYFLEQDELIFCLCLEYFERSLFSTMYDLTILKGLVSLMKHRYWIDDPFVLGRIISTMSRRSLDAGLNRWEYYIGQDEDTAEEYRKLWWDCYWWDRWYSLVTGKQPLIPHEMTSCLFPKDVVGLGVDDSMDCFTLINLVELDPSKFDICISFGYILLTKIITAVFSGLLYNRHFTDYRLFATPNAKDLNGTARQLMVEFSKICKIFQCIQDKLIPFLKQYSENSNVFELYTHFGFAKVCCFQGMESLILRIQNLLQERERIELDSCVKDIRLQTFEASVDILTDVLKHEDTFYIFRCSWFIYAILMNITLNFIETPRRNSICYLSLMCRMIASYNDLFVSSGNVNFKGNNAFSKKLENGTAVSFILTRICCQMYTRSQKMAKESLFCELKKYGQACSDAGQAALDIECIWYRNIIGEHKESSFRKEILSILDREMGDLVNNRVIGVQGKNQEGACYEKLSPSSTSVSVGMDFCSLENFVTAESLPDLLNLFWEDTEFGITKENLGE
Summary of the method: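 Universal all-10-mer Agilent arrays, fresh or stripped once, were converted to double-stranded form by primer extension. GST-tagged yeast transcription factors from PURExpress in vitro transcription/translation, full-length or DNA-binding domain only, were applied at about 100-200 nM and detected with fluorescent anti-GST. After masliner normalisation, the Universal PBM Analysis Suite scored each ungapped eight-base word together with its reverse complement by E-score.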

Sequence | PBM E-score
AACGGTCA | 0.149
GCAGGGCC | -0.263
TAGATACA | 0.00426
AAGGCGTC | -0.15
AACCACAG | -0.208
GTCGAGGA | -0.267
ACCATGCC | -0.0758
CAGGCCGG | 0.108
ACGAAATA | 0.11
GCCGTACC | 0.178
ATCGTCAG | -0.0617
CTACTGCA | -0.16
ATCACTGA | 0.0166
CAAGAGAG | -0.0284
GAAATATA | 0.278
CGCCTGTC | -0.162
CAGTCAGG | -0.228
CCTCGCAG | -0.234
ACGCCAAT | -0.0124
ATTGTGAG | 0.09
AATAGACG | 0.0155
CAGTCCGA | 0.182
CCGTGGAG | 0.0232
CCTGCCCA | -0.301
CCCTCATC | -0.315

Sequence | PBM E-score
CTGTAAAG | 0.113
CATGCGAA | 0.159
TTACAAAA | 0.172
ATAATCAC | 0.0615
GGCCCAGA | -0.241
AAGCCGAT | 0.356
CCGTGCTC | 0.132
CCTCGTCC | -0.2
CCTCTGAA | -0.181
ATATGTTC | 0.0761
GGTATGAC | -0.143
AGGTCATA | -0.118
CAGTCGAG | -0.21
GGACTAAC | -0.00306
ACATAAAT | 0.105
AAAGAATG | 0.251
AACCTCCT | -0.256
GACCTGGA | -0.194
AGTGGCCC | -0.153
CAATCCGA | 0.184
GCCCCACC | -0.13
AGCCTAAC | -0.019
AGAAGATC | -0.0839
CCCCGGGA | 0.119
ACTACCCA | -0.168

Sequence | PBM E-score
AAACCACC | -0.153
CCTGCGGC | -0.123
CCGAGCTC | 0.187
AGCAACAT | 0.0281
CCAGTGCA | -0.172
GGCAGCCA | -0.111
CCTTCTTA | -0.129
CAGATCCC | -0.21
ATAAGATC | -0.0275
CACAACCG | 0.254
CTACTTGA | -0.244
ATGTGGAC | -0.0649
GCTCTAGA | -0.207
ATGGACGA | 0.0399
ACCAAAAC | -0.00373
ACCGGGAG | -0.0778
ATGTCTCC | 0.0381
TAACACTA | 0.2
GGACCGGA | 0.297
AGGACCGG | 0.0759
GAATATCA | 0.0157
CGTGAAGA | 0.0142
CTGGACGC | -0.214
CATGCTGG | -0.295
ATCCAAGA | 0.162

Sequence | PBM E-score
CTCTGATC | -0.192
CGCCAAAA | 0.132
ACTTCGAC | 0.0831
GACGAGCA | -0.036
ACGACAGA | -0.0988
GTGGAATA | -0.00226
ACTCCGCG | 0.195
TGAGATAA | 0.0396
TATTCCAA | 0.115
TCGACCAA | -0.124
GTGGCGTA | -0.0523
GCGTAGAC | -0.149
CTGTTACC | -0.266
ACCGGCGC | 0.226
ATGTTGTG | 0.0995
AGGAACTG | -0.128
CATTCTTA | -0.0698
ACCGCCAA | -0.0895
ACAGTCAA | -0.00419
ACGTTACT | 0.0168
TCAAAGCA | 0.137
AACACAAA | 0.0539
CATTGTCG | 0.047
GCGAGCTA | -0.0608
AGAGTAAA | -0.00457

Sequence | PBM E-score
ATAGTAAC | 0.0738
GGACGCAA | -0.0521
ATGCGTCC | -0.0549
CGCTACGA | -0.0203
CGTGCCCC | -0.266
CACAGGAG | -0.0459
CTCGAACC | -0.0575
CTGTGTGC | -0.184
TAACAGTA | -0.131
ATATACAT | 0.174
CCTCCAGC | -0.254
GAAACTAC | 0.181
CTTGTTCC | 0.153
CATTGTAG | -0.106
GAACACTA | 0.0425
ATTGTTTA | 0.124
ACGACCTC | 0.0288
AGGTATTG | -0.0873
ATAGTTCG | 0.133
CTGTGAAA | 0.249
CAGGCTAG | -0.28
ACGCACGA | 0.064
CGTGTCAG | 0.0737
AAATTCCT | -0.0664
ATCGTCTG | -0.0447

Sequence | PBM E-score
CCCGCGGG | 0.3
GGACCGTA | -0.00481
ACGTGCCA | -0.242
GCACAGAA | 0.0756
AGACGATC | -0.334
ACTGGGAC | -0.193
CCGGAGTA | 0.381
CATACCAA | -0.0295
CTGCGTTC | 0.103
GCACAGCA | 0.0113
AACAACGT | -0.113
ACTATATA | 0.19
CCCGACCC | -0.0628
ACCGAGTC | -0.0455
ACCGACAG | 0.11
CTGATAAA | 0.0927
AGGCCCAG | -0.345
GATAGCCA | -0.107
CATGCTAC | -0.177
GGCGGCCA | -0.0827
TATACTAA | 0.104
ATTTACGC | 0.029
ATATTCGG | 0.188
AGTTGAGA | -0.025
GCTTGCTA | -0.13

Sequence | PBM E-score
GGCGCCAA | -0.0615
CGTCAGTC | -0.057
AAGTTTCA | 0.167
CGCACACA | -0.0939
GTGTCGAA | -0.118
AACAAAGG | -0.0899
CCGACTTA | 0.304
CCACCACA | -0.093
ATTGTGTA | 0.143
AGAGTCAG | -0.134
AGCAGGAG | -0.0829
AGTGGGTG | 0.0405
AACCCTGG | -0.26
CCTTGACA | -0.129
CTTTTTGA | 0.0865
ACATATCT | 0.121
ACTTAGCC | -0.12
CGCTGTTA | -0.0994
AATGTGTG | -0.0345
CACACTTC | -0.0208
AGTAGACA | 0.0712
CATTGCCG | 0.24

Exported field by field: part of the list above.
CCTTGACA
  PBM E-score: -0.129
CTTTTTGA
  PBM E-score: 0.0865
ACATATCT
  PBM E-score: 0.121

Reformatted in markdown: part of the list above

| Sequence | PBM E-score |
| --- | --- |
| AGAGTCAG | -0.134 |
| CACACTTC | -0.0208 |
| AGTAGACA | 0.0712 |
| CATTGCCG | 0.24 |
